Assay results: article doi:10.1101/2023.10.09.561576
These are yes or no findings as the source states them, for the method shown. In cells and extracts the contact can be indirect. Here binding means that the protein was enriched with, or labelled near, the bait; the list need not be complete. One block for each binder: values may come before it.

Protein sequences, listed by entry. Tags and fused reporters are not part of them.
UniProt Q96P20: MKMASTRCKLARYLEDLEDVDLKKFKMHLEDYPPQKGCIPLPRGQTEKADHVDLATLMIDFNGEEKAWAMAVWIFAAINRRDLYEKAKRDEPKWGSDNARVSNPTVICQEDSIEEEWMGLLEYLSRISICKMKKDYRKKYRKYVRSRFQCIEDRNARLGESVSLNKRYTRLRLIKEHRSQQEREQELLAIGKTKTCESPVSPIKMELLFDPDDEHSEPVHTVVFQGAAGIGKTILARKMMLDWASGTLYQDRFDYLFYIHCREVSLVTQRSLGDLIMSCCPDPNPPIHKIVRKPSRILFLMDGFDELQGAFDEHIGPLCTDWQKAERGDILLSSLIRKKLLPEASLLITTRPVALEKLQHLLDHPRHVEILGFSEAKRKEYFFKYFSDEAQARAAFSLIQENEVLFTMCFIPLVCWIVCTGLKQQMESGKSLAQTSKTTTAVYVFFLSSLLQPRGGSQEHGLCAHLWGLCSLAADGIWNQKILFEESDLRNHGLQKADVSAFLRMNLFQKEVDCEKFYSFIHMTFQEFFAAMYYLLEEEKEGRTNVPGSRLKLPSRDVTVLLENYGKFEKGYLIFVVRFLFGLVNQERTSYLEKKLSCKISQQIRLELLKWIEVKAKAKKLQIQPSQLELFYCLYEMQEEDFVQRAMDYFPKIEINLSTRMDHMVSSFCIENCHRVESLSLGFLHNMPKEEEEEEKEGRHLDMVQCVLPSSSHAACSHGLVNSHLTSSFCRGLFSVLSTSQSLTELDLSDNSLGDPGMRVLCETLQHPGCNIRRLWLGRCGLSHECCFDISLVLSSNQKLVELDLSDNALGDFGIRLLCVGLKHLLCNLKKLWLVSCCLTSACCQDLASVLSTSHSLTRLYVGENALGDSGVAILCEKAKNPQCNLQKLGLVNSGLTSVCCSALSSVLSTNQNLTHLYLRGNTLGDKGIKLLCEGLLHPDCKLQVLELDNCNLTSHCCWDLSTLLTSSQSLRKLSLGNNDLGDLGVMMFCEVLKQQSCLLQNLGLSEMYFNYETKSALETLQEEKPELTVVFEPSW

Target: flag-NLRP3-APEX2 (human) (UniProt Q96P20)
Experiment: proximity labelling

binding: binds
B1: PRKD2 (enzyme, UniProt Q9BZL6 1-878)
chain: MATAPSYPAGLPGSPGPGSPPPPGGLELQSPPPLLPQIPAPGSGVSFHIQIGLTREFVLLPAASELAHVKQLACSIVDQKFPECGFYGLYDKILLFKHDPTSANLLQLVRSSGDIQEGDLVEVVLSASATFEDFQIRPHALTVHSYRAPAFCDHCGEMLFGLVRQGLKCDGCGLNYHKRCAFSIPNNCSGARKRRLSSTSLASGHSVRLGTSESLPCTAEELSRSTTELLPRRPPSSSSSSSASSYTGRPIELDKMLLSKVKVPHTFLIHSYTRPTVCQACKKLLKGLFRQGLQCKDCKFNCHKRCATRVPNDCLGEALINGDVPMEEATDFSEADKSALMDESEDSGVIPGSHSENALHASEEEEGEGGKAQSSLGYIPLMRVVQSVRHTTRKSSTTLREGWVVHYSNKDTLRKRHYWRLDCKCITLFQNNTTNRYYKEIPLSEILTVESAQNFSLVPPGTNPHCFEIVTANATYFVGEMPGGTPGGPSGQGAEAARGWETAIRQALMPVILQDAPSAPGHAPHRQASLSISVSNSQIQENVDIATVYQIFPDEVLGSGQFGVVYGGKHRKTGRDVAVKVIDKLRFPTKQESQLRNEVAILQSLRHPGIVNLECMFETPEKVFVVMEKLHGDMLEMILSSEKGRLPERLTKFLITQILVALRHLHFKNIVHCDLKPENVLLASADPFPQVKLCDFGFARIIGEKSFRRSVVGTPAYLAPEVLLNQGYNRSLDMWSVGVIMYVSLSGTFPFNEDEDINDQIQNAAFMYPASPWSHISAGAIDLINNLLQVKMRKRYSVDKSLSHPWLQEYQTWLDLRELEGKMGERYITHESDDARWEQFAAEHPLPGSGLPTDRDLGGACPPQDHDMQGLAERISVL

binding: binds
B2: PRKD3 (enzyme, UniProt O94806 1-890)
chain: MSANNSPPSAQKSVLPTAIPAVLPAASPCSSPKTGLSARLSNGSFSAPSLTNSRGSVHTVSFLLQIGLTRESVTIEAQELSLSAVKDLVCSIVYQKFPECGFFGMYDKILLFRHDMNSENILQLITSADEIHEGDLVEVVLSALATVEDFQIRPHTLYVHSYKAPTFCDYCGEMLWGLVRQGLKCEGCGLNYHKRCAFKIPNNCSGVRKRRLSNVSLPGPGLSVPRPLQPEYVALPSEESHVHQEPSKRIPSWSGRPIWMEKMVMCRVKVPHTFAVHSYTRPTICQYCKRLLKGLFRQGMQCKDCKFNCHKRCASKVPRDCLGEVTFNGEPSSLGTDTDIPMDIDNNDINSDSSRGLDDTEEPSPPEDKMFFLDPSDLDVERDEEAVKTISPSTSNNIPLMRVVQSIKHTKRKSSTMVKEGWMVHYTSRDNLRKRHYWRLDSKCLTLFQNESGSKYYKEIPLSEILRISSPRDFTNISQGSNPHCFEIITDTMVYFVGENNGDSSHNPVLAATGVGLDVAQSWEKAIRQALMPVTPQASVCTSPGQGKDHKDLSTSISVSNCQIQENVDISTVYQIFADEVLGSGQFGIVYGGKHRKTGRDVAIKVIDKMRFPTKQESQLRNEVAILQNLHHPGIVNLECMFETPERVFVVMEKLHGDMLEMILSSEKSRLPERITKFMVTQILVALRNLHFKNIVHCDLKPENVLLASAEPFPQVKLCDFGFARIIGEKSFRRSVVGTPAYLAPEVLRSKGYNRSLDMWSVGVIIYVSLSGTFPFNEDEDINDQIQNAAFMYPPNPWREISGEAIDLINNLLQVKMRKRYSVDKSLSHPWLQDYQTWLDLREFETRIGERYITHESDDARWEIHAYTHNLVYPKHFIMAPNPDDMEEDP
